# From the supplement of paper PMC6411743
# Protein sequences, listed by entry. Tags and fused reporters are not part of them. Lines headed by an entry give the natural chain unless they say otherwise; changes in a name come on top.
# UniProt P46939: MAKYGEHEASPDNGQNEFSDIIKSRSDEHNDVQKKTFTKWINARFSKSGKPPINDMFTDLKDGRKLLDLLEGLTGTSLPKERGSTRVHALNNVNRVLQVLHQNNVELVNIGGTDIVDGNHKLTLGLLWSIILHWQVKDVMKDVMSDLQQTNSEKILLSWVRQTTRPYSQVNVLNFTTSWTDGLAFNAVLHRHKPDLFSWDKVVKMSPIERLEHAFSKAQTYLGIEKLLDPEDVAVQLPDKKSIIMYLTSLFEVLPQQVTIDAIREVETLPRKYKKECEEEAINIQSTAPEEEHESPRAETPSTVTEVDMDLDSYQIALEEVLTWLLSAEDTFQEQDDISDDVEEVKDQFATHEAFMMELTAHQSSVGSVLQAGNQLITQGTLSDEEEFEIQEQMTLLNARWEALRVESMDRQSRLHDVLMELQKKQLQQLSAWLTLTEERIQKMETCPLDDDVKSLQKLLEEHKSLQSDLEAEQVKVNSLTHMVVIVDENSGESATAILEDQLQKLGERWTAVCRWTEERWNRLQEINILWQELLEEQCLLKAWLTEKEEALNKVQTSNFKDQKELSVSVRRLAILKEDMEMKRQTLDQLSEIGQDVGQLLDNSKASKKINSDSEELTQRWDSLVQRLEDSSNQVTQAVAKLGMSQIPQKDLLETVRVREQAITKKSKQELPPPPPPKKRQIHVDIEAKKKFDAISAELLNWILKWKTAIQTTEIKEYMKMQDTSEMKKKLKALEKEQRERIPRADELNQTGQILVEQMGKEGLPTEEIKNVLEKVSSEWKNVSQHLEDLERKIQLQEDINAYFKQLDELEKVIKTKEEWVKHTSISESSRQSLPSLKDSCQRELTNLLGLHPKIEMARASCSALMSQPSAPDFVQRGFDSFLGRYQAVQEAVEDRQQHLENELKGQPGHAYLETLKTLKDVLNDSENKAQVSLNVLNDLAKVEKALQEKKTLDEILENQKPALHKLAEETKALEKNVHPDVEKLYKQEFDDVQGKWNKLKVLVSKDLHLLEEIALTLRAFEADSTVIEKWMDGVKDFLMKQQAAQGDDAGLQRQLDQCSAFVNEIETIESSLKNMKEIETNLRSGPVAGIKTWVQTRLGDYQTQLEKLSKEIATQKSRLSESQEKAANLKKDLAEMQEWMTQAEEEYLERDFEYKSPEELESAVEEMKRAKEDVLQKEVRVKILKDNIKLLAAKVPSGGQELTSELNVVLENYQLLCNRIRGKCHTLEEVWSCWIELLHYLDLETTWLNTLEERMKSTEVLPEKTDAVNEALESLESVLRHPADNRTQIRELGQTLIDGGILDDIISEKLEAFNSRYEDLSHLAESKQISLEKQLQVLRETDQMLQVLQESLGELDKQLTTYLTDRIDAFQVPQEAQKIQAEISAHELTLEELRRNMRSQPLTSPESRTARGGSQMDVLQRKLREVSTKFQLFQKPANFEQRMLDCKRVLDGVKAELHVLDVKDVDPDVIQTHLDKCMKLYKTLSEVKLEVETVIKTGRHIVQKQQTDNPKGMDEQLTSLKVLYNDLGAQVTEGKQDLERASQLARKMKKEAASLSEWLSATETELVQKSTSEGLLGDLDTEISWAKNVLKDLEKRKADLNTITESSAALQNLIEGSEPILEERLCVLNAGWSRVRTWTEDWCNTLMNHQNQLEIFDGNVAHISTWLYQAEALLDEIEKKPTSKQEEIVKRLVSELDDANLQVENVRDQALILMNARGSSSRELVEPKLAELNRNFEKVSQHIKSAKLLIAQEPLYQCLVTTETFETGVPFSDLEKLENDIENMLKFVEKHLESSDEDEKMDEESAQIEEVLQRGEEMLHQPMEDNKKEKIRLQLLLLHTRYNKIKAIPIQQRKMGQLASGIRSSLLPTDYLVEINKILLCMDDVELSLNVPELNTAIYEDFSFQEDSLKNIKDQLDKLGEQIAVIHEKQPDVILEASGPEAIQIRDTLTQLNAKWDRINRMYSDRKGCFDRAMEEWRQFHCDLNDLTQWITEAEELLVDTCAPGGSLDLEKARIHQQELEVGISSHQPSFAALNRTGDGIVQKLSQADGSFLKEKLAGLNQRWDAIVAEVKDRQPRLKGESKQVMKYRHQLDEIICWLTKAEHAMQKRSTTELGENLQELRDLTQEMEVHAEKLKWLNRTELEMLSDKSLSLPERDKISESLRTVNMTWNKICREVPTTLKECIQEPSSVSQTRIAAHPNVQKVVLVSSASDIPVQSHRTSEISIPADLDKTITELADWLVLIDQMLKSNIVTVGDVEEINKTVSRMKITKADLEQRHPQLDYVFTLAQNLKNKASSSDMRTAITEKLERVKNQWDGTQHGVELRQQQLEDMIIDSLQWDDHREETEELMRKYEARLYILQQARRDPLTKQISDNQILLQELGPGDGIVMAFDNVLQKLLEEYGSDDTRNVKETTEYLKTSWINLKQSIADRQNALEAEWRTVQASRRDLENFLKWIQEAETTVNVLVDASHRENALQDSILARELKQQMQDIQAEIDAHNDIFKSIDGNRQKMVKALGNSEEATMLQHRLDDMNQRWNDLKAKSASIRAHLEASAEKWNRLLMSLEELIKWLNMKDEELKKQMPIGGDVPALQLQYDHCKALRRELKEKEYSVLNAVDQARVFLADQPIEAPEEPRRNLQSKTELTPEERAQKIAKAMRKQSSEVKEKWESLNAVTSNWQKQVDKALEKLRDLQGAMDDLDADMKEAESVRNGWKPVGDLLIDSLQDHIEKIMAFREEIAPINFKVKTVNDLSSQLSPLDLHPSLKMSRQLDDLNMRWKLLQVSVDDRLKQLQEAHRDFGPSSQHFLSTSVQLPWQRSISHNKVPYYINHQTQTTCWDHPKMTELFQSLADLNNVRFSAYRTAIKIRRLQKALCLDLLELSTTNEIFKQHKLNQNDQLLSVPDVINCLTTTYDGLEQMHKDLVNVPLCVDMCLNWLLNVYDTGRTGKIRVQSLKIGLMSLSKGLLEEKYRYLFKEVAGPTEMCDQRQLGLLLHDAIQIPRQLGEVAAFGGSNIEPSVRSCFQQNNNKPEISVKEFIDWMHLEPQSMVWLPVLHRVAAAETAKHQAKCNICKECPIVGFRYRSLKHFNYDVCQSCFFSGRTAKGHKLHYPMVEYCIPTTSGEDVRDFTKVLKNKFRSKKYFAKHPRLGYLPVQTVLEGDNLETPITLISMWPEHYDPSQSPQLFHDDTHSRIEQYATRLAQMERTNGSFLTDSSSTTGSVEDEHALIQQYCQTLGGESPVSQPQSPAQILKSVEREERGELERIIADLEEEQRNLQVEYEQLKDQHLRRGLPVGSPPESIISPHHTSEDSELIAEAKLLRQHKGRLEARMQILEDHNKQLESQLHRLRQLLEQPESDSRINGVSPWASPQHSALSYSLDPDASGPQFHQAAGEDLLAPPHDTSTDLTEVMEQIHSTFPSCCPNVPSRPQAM
# UniProt Q6PCB5: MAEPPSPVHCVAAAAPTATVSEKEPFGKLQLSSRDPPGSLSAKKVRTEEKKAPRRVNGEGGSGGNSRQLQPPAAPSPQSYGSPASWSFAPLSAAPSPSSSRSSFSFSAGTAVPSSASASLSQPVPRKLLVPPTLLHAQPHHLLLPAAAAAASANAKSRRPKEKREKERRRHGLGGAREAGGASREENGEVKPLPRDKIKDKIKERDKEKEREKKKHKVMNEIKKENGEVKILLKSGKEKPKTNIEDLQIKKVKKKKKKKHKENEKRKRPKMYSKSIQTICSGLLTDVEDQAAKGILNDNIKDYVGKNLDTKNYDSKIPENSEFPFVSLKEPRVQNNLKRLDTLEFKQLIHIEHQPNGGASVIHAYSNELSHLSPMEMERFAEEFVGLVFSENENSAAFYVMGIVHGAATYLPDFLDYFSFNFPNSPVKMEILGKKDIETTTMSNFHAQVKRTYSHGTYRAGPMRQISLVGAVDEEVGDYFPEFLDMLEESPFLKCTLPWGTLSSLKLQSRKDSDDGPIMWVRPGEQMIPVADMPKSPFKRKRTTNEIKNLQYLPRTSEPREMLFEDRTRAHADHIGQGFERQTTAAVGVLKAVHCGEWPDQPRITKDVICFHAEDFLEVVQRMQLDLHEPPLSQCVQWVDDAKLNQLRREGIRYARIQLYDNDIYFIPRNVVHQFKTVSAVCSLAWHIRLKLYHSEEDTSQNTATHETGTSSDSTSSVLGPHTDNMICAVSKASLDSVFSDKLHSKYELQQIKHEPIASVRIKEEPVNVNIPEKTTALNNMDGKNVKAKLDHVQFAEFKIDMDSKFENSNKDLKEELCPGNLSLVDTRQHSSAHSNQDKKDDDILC
# UniProt Q9Y666: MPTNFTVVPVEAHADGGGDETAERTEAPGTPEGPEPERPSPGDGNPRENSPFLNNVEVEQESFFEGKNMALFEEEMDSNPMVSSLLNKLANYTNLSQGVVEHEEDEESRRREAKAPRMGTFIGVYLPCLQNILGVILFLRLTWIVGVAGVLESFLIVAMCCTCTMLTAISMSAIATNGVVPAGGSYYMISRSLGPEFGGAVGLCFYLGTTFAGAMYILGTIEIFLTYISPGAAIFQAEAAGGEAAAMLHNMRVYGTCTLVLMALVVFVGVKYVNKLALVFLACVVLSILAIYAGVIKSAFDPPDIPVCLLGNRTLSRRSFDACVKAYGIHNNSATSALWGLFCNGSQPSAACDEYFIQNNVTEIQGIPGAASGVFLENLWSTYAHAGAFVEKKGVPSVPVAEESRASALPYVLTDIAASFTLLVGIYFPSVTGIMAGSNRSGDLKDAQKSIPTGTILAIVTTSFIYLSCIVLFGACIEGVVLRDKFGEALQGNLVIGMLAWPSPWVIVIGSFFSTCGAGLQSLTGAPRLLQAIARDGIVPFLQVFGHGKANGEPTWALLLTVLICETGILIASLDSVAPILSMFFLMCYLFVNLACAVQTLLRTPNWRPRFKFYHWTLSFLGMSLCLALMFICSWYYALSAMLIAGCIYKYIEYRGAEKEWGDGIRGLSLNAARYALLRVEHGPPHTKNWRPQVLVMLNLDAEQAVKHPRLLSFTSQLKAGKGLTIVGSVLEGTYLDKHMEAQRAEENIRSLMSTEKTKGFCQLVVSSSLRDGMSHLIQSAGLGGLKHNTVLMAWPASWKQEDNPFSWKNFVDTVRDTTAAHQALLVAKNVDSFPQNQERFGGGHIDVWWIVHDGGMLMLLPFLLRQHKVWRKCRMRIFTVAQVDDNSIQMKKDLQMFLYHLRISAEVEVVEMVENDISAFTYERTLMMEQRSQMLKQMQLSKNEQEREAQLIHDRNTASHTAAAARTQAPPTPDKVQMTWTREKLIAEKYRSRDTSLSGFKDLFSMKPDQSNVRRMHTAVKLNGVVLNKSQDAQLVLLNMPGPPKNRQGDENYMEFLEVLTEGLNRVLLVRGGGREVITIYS
# UniProt Q15269: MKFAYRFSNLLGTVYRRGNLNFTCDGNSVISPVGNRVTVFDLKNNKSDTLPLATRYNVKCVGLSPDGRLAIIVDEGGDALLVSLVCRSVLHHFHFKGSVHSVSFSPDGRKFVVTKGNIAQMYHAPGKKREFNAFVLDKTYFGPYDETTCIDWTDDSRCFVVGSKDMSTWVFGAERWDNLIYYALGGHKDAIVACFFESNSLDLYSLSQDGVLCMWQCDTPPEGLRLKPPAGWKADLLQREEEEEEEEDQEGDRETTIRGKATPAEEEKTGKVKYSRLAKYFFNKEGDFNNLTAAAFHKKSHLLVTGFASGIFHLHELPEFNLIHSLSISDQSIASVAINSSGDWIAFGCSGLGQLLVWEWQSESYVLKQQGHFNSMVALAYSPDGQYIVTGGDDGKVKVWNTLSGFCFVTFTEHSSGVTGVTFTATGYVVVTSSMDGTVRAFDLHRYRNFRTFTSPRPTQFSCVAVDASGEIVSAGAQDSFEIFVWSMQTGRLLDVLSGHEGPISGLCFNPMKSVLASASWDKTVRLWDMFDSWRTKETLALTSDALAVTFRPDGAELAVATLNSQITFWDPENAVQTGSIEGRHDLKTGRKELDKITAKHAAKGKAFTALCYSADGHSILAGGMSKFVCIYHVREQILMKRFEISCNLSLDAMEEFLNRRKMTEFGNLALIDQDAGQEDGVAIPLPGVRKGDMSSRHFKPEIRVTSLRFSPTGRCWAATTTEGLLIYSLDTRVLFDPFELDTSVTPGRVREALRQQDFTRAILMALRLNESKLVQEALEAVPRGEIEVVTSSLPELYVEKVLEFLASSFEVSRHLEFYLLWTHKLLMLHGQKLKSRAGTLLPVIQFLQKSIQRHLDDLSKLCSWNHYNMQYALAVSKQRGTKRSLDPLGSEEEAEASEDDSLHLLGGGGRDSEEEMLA
# ± gives the standard deviation of the averaged measurements. This is a selection; strong and weak results do not stand in their true shares.
# Compound: Nc1ncnc2c1ncn2[C@@H]1O[C@H](COP(=O)(O)OP(=O)(O)NP(=O)(O)O)[C@@H](O)[C@H]1O [adenylyl imidodiphosphate]
# Assay: NP40-soluble protein abundance relative to vehicle (solubility fold change) (ratio); higher = more soluble protein in presence of AMP-PNP
# Outline: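 Crude Jurkat lysate, prepared by Dounce homogenisation, was exposed to eight concentrations from 0.1 to 10 mM for 10 min at room temperature and then 3 min at 37 °C. Solubilisation used 0.8% NP40 with benzonase for 60 min at 4 °C, followed by ultracentrifugation and TMT labelling of the supernatant for LC-MS/MS. After vsn normalisation of intensities, each value is the fold change against the detergent-processed vehicle within each replicate, across three independent experiments.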
Target,NP40-soluble protein abundance (concentration: 1mM),NP40-soluble protein abundance (concentration: 2mM),NP40-soluble protein abundance (concentration: 4mM),NP40-soluble protein abundance (concentration: 6mM),NP40-soluble protein abundance (concentration: 8mM),NP40-soluble protein abundance (concentration: 10mM)
A0A0A0MSM3|P46939 and related entries (UniProt P46939),1.01 ± 0.024,1.03 ± 0.037,1 ± 0.018,0.978 ± 0.025,0.951 ± 0.012,0.98 ± 0.024
A0A0U1RRK1|F6XEV2 and related entries (UniProt Q9BPX6),1 ± 0.049,0.982 ± 0.043,1.02 ± 0.039,1.01 ± 0.034,1.03 ± 0.033,1.02 ± 0.039
A0A087WWS1|Q96FV9 (UniProt Q96FV9),1.35 ± 0.15,1.52 ± 0.22,1.64 ± 0.29,1.86 ± 0.46,1.96 ± 0.56,2.2 ± 0.76
A0A0B4J220 (UniProt E9PRG8),1.14 ± 0.051,1.15 ± 0.057,1.2 ± 0.045,1.26 ± 0.1,1.4 ± 0.053,1.39 ± 0.046
A0A087X239|Q6PCB5 (UniProt Q6PCB5),1.05 ± 0.017,1.114 ± 0.0078,1.12 ± 0.015,1.13 ± 0.036,1.15 ± 0.013,1.17 ± 0.022
A0A0A0MR66|P98175-4 (UniProt P98175),1.04 ± 0.027,1.1 ± 0.027,1.09 ± 0.024,1.13 ± 0.062,1.12 ± 0.066,1.21 ± 0.062
A0A0C4DGA2|O75521 and related entries (UniProt O75521),0.997 ± 0.027,0.993 ± 0.027,0.995 ± 0.053,1.07 ± 0.024,1.06 ± 0.041,1.08 ± 0.021
A0A087WY00|F8W6H6 and related entries (UniProt Q9Y4I1),1.9 ± 0.27,1.97 ± 0.29,2.07 ± 0.28,2 ± 0.31,1.96 ± 0.29,2.01 ± 0.24
A0A0C4DFM2|Q6ZN55 and related entries (UniProt Q6ZN55),1 ± 0.031,1.001 ± 0.0041,0.972 ± 0.045,0.978 ± 0.01,0.976 ± 0.026,0.938 ± 0.025
A0A0G2JNW7|Q9Y666 (UniProt Q9Y666),0.979 ± 0.033,0.999 ± 0.028,1.02 ± 0.029,1.03 ± 0.016,1.039 ± 0.0094,1.01 ± 0.024
A0A0G2JPT5|O75943 and related entries (UniProt O75943),0.9727 ± 0.0014,1.0041 ± 0.00096,1.01 ± 0.013,0.97 ± 0.043,0.9982 ± 0.004,0.994 ± 0.039
A0A0U1RRM6|Q8N8S7 and related entries (UniProt Q8N8S7),1.01 ± 0.028,1.08 ± 0.063,1.04 ± 0.015,1.05 ± 0.047,1.01 ± 0.043,1.05 ± 0.023
A0A0G2JHC2|Q6NYC8 (UniProt Q6NYC8),1.07 ± 0.012,1.14 ± 0.087,1.1 ± 0.035,1.08 ± 0.056,1.07 ± 0.038,1.12 ± 0.023
A0A0D9SEY1|E7ESS2 and related entries (UniProt O95819),1.04 ± 0.046,1.05 ± 0.046,1.05 ± 0.058,1.01 ± 0.026,1.03 ± 0.059,1.05 ± 0.038
A0A0A0MTC2|D6RA37 and related entries (UniProt Q13454),0.959 ± 0.035,0.923 ± 0.026,1.01 ± 0.03,1.05 ± 0.08,1.05 ± 0.063,1 ± 0.058
A0A087WYW3|P30414 (UniProt P30414),1.034 ± 0.0047,1.05 ± 0.052,1.08 ± 0.05,1.109 ± 0.011,1.11 ± 0.026,1.14 ± 0.036
A0A0J9YWD5|A0A0J9YYB5|B7ZM65 and related entries (UniProt Q9P1Y6),0.998 ± 0.042,1.06 ± 0.054,1.05 ± 0.035,1.02 ± 0.017,1.02 ± 0.033,1.03 ± 0.05
A0A0B4J2E5|Q15269 (UniProt Q15269),1.05 ± 0.019,1.04 ± 0.098,1.23 ± 0.043,1.38 ± 0.036,1.56 ± 0.074,1.52 ± 0.095
A0A087WXI0 (UniProt Q7Z6P3),1.03 ± 0.059,1.05 ± 0.021,1.06 ± 0.041,1.02 ± 0.052,1.03 ± 0.037,1.04 ± 0.035
UniProt A0FGR8-2|H7BXI1,0.986 ± 0.023,0.925 ± 0.07,0.983 ± 0.022,0.988 ± 0.042,1.01 ± 0.044,1 ± 0.048
A0A0D9SFL3|B0QYK0 and related entries (UniProt Q01844),1.01 ± 0.014,1.05 ± 0.069,0.992 ± 0.041,1.01 ± 0.02,1.01 ± 0.029,0.979 ± 0.048
A0A087X112|Q9H9A7 (UniProt Q9H9A7),0.996 ± 0.025,0.994 ± 0.024,1.02 ± 0.035,1.01 ± 0.033,1.02 ± 0.025,1.04 ± 0.02
A0A0A0MRP6|B7ZLQ5 and related entries (UniProt P28370),1.03 ± 0.058,1.02 ± 0.049,1.09 ± 0.064,1.06 ± 0.055,1.11 ± 0.049,1.09 ± 0.046
A0A0U1RQK7|A0A0A0MSA7|O43432 and related entries (UniProt O43432),1.007 ± 0.0043,1.017 ± 0.0077,1.02 ± 0.014,1.02 ± 0.063,1.02 ± 0.058,1.01 ± 0.054
A0A0A0MRT6|B6VEX4 and related entries (UniProt Q8IZP0),1.05 ± 0.032,1.09 ± 0.054,1.06 ± 0.075,1.01 ± 0.036,0.998 ± 0.017,1 ± 0.031
A0A0B4J2A4|K7EME0 and related entries (UniProt P42765),1.01 ± 0.025,1 ± 0.039,0.989 ± 0.064,0.994 ± 0.029,0.968 ± 0.025,0.979 ± 0.041
A0A0A0MTG1|A0A0G2JIA5|A0A140T8Y0|A0A140TA35|A0A140TA36|A0A140TA40|A0A140TA45|Q5ST30 and related entries (UniProt Q5ST30),1 ± 0.017,0.992 ± 0.051,0.992 ± 0.02,0.98 ± 0.034,0.979 ± 0.022,0.969 ± 0.04
A0A0G2JJD3|O95870 and related entries (UniProt O95870),0.9652 ± 0.0078,0.968 ± 0.034,0.974 ± 0.018,0.9683 ± 0.0022,0.98 ± 0.029,0.932 ± 0.012

# Another view of part of the listing above.
Target	NP40-soluble protein abundance (concentration: 1mM)	NP40-soluble protein abundance (concentration: 2mM)	NP40-soluble protein abundance (concentration: 4mM)	NP40-soluble protein abundance (concentration: 6mM)	NP40-soluble protein abundance (concentration: 8mM)	NP40-soluble protein abundance (concentration: 10mM)
A0A0A0MSM3|P46939 and related entries (UniProt P46939)	1.01 ± 0.024	1.03 ± 0.037	1 ± 0.018	0.978 ± 0.025	0.951 ± 0.012	0.98 ± 0.024
A0A0U1RRK1|F6XEV2 and related entries (UniProt Q9BPX6)	1 ± 0.049	0.982 ± 0.043	1.02 ± 0.039	1.01 ± 0.034	1.03 ± 0.033	1.02 ± 0.039
A0A087X239|Q6PCB5 (UniProt Q6PCB5)	1.05 ± 0.017	1.114 ± 0.0078	1.12 ± 0.015	1.13 ± 0.036	1.15 ± 0.013	1.17 ± 0.022
A0A0G2JNW7|Q9Y666 (UniProt Q9Y666)	0.979 ± 0.033	0.999 ± 0.028	1.02 ± 0.029	1.03 ± 0.016	1.039 ± 0.0094	1.01 ± 0.024
A0A0B4J2E5|Q15269 (UniProt Q15269)	1.05 ± 0.019	1.04 ± 0.098	1.23 ± 0.043	1.38 ± 0.036	1.56 ± 0.074	1.52 ± 0.095
A0A0D9SFL3|B0QYK0 and related entries (UniProt Q01844)	1.01 ± 0.014	1.05 ± 0.069	0.992 ± 0.041	1.01 ± 0.02	1.01 ± 0.029	0.979 ± 0.048
